Article PMC5818251
No constants are given. Whether binding was seen depends on the method and setting. In cells and extracts the contact can be indirect. Some results given as binding are weak or reduced against the parent protein; the word gives no strength.

The chains behind the UniProt entries cited, without tags or fusion partners.
UniProt P47941: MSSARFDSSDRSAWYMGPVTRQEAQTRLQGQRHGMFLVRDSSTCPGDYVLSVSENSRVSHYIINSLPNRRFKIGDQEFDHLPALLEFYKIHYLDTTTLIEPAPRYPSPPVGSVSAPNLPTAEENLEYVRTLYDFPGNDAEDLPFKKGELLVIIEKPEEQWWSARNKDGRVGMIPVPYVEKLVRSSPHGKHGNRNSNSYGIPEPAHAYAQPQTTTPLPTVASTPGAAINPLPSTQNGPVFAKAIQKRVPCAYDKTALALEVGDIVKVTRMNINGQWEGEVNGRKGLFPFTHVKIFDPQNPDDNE
UniProt Q60631: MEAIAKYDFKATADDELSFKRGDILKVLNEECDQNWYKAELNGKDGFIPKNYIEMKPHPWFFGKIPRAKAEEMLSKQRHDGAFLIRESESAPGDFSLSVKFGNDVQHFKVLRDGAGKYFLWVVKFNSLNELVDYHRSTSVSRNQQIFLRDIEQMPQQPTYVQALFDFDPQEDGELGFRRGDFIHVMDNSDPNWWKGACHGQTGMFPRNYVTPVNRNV

Biological target: TAP-Crkl (Crkl protein conjugated to a tandem affinity purification tag) (UniProt P47941)
Assay: co-IP; NIH-3T3 cells transfected with TAP-Crkl, serum depleted overnight, treated with recombinant human FGF2 (100 ng/ml, 5 min) or control; lysed in 25 mM Tris-HCl pH 7.4, 1 mM EDTA, 150 mM NaCl, 1% NP-40, 5% glycerol; TAP-Crkl captured on streptavidin resin, washed at 4°C; immunoblots for Frs2, Shp2 and Grb2

Grb2 (from UniProt Q60631 1-217)
binding: binds
